Paper PMC7072815, “Nrp1 is Activated by Konjac Ceramide Binding-Induced Structural Rigidification of the a1a2 Domain” (Cells, 2020)
Results are given in words; binding and its absence hold for the method and conditions named. Binding seen in cells or lysates may run through a third protein. Where a sequence is shown, tags or fusion partners need not be part of it.

Experiments:
[1] = target: T1, Nrp1 b1b2 domain (residues 270-588), His-tagged (UniProt P97333); assay: co-IP; His-tagged Nrp1, a1a2, b1b2 or c (100 nM; 10 pmol in 100 uL PBS) mixed with AP-Sema3A (0, 50 or 100 nM), precipitated with 2 ug anti-6x-His monoclonal antibody; AP-Sema3A in the precipitate quantified by alkaline phosphatase activity (pNPP)
T1 sequence: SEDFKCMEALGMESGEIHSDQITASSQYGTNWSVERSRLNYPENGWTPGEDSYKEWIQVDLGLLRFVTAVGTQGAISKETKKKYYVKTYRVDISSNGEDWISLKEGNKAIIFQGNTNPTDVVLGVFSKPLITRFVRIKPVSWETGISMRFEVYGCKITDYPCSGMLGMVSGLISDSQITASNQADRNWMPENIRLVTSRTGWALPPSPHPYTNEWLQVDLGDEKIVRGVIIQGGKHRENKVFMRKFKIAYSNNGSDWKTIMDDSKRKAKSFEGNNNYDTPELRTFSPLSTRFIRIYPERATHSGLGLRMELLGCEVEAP

[2] = target: T2, Nrp1 c domain (residues 589-854), His-tagged (UniProt P97333); assay: as above
T2 sequence: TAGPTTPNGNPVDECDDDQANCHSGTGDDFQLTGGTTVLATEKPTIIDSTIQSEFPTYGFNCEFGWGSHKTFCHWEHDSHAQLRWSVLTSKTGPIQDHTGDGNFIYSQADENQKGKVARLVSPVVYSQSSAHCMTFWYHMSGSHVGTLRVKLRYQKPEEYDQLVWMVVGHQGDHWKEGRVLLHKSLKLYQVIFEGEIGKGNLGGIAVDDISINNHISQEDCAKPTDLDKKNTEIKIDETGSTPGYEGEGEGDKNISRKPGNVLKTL

B1: alkaline phosphatase-fused Sema3A (ligand, UniProt Q90607 23-772)
chain: QHVKNNVPRLKLSYKEMLESNNIVNFNGLANSSSYHTFLLDEERSRLYVGAKDHIFSFNLVNIKEYQKIVWPVSHSRRDECKWAGKDILRECANFIKVLKTYNQTHLYACGTGAFHPMCTYIEVGSHPEDNIFRMEDSHFENGRGKSPYDPKLLTASLLVDGELYSGTAADFMGRDFAIFRTLGHHHPIRTEQHDSRWLNDPRFISAHLIPESDNPEDDKIYFFFRENAIDGEHTGKATHARIGQICKNDFGGHRSLVNKWTTFLKARLICSVPGPNGIDTHFDELQDVFLMNSKDPKNPIVYGVFTTSSNIFKGSAVCMYSMTDVRRVFLGPYAHRDGPNYQWVPYQGRVPYPRPGTCPSKTFGGFDSTKDLPDEVITFARSHPAMYNPVFPINSRPIMIKTDVDYQFTQIVVDRVDAEDGQYDVMFIGTDIGTVLKVVSIPKETWHELEEVLLEEMTVFREPTVISAMKISTKQQQLYIGSATGVSQLPLHRCDVYGKACAECCLARDPYCAWDGSSCSRYFPTAKRRTRRQDIRNGDPLTHCSDLQHHDNPSGQTLEEKIIYGVENSSTFLECSPKSQRAIVYWQFQKQNDDHKVEIKVDDRMIRTEQGLLLRSLQRRDSGIYFCHAVEHGFIQTLLKVTLEVIDTDHLEELLHKEEDADASKTKDATNSMTPSQKIWYRDFMQLINHPNLNTMDEFCEQVWKRDRKQRRQRPANAQVNTNKWKHLQENKKGRNRRTHEFERAPRSV
Question: B1 was tested. Which binding [1] did it give?
Answer: The binding was “no binding (tested: 100 nM AP-Sema3A with 100 nM b1b2)”.

Question: And the binding [2]?
Answer: Its binding is “no binding (tested: 100 nM AP-Sema3A with 100 nM c)”.
